These are yes or no findings as the source states them, for the method shown. For some of these results: In cells and extracts the contact can be indirect. Some results given as binding are weak or reduced against the parent protein; the word gives no strength.
How the values were obtained:
Bod1-GST (human) = Bod1-GST (human) (UniProt Q96IK1); assay: pull-down; purified Bod1-GST on Sepharose beads incubated with mitotic HeLa cell lysates; immunoblot for Ndc80, Nuf2 and Spc24; only the target purified
Ndc80/Nuf2–GST dimer [1] = biological target: Ndc80/Nuf2–GST dimer (UniProt O14777); assay: pull-down; 150 pmol Ndc80/Nuf2-GST dimer or Spc24-GST/Spc25 dimer immobilised on Sepharose beads, incubated with 1 nmol Bod1-MBP or MBP for 1 h; SDS-PAGE and immunoblot for MBP and GST; bound protein quantified relative to the input; n = 4; both purified
Ndc80/Nuf2–GST dimer [2] = biological target: Ndc80/Nuf2–GST dimer (UniProt O14777); assay: pull-down; Bod1-MBP with recombinant Ndc80/Nuf2–GST dimer or Spc24–GST/Spc25 dimer (supplementary figure S5b,c); conditions not shown; both purified

The chains behind the UniProt entries cited, without tags or fusion partners. Where a name states a change or a piece, a line headed by the entry shows the natural chain unless it says otherwise.
UniProt Q96IK1: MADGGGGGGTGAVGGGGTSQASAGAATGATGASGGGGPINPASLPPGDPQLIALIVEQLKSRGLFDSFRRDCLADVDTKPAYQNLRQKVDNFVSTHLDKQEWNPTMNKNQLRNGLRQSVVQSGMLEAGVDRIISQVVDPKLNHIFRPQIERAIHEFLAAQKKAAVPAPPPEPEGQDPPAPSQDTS
UniProt O14777: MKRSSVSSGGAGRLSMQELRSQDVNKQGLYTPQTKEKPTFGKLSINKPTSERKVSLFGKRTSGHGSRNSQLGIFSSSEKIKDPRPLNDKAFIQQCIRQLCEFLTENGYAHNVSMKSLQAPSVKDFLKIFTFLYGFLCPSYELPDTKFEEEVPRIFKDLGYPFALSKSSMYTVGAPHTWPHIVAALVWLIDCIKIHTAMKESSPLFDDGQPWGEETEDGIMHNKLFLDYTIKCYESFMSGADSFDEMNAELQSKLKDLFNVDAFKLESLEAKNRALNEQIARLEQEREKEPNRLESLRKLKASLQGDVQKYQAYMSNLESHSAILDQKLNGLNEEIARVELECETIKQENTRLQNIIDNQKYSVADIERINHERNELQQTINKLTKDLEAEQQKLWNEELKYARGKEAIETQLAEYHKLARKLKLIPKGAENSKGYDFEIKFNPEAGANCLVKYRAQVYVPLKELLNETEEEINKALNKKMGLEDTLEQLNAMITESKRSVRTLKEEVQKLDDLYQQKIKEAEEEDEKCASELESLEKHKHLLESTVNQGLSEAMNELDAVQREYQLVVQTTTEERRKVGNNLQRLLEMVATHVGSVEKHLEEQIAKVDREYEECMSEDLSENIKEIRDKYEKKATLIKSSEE
UniProt Q8NBT2: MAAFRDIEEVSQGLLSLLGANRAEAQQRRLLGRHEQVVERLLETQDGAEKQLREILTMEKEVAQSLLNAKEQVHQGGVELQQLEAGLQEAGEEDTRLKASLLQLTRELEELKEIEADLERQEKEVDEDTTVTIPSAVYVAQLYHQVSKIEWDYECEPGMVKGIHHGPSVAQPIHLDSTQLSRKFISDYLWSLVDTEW
UniProt Q9BZD4: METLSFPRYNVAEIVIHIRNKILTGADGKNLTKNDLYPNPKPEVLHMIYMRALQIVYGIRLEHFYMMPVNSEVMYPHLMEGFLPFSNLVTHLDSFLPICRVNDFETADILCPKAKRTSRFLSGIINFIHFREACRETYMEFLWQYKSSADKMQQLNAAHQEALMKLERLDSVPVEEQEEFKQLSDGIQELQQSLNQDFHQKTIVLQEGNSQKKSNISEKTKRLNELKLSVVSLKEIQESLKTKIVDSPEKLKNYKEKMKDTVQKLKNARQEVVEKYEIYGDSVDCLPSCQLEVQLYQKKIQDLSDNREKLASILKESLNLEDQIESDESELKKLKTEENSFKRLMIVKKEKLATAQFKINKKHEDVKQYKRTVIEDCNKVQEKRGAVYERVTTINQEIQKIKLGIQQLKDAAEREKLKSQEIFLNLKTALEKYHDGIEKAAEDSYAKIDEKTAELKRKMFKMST

Substance | binding (Bod1-GST (human)) | binding (Ndc80/Nuf2–GST dimer [1]) | binding (Ndc80/Nuf2–GST dimer [2])
Spc24 (from UniProt Q8NBT2 1-197) | binds | – | –
Nuf2 (from UniProt Q9BZD4 1-464) | binds | – | –
Bod1-MBP (from UniProt Q96IK1 1-185) | – | binds | binds
